Conditions: N = 43; data cutoff July 14, 2014

| Structure (SMILES) | mean relative dose intensity (proportion of dose prescribed that was actually taken) | patients receiving 100 % of the planned dose |
| --- | --- | --- |
| C[C@@H]1C[C@H]2[C@@H]3CCC4=CC(=O)C=C[C@]4(C)[C@@]3(F)[C@@H](O)C[C@]2(C)[C@@]1(O)C(=O)CO [dexamethasone, reference compound] | 90.9% | 28% |
| Nc1cccc2c1CN(C1CCC(=O)NC1=O)C2=O (centres unmarked) [lenalidomide, reference compound] | 68.7% | 12% |
| CC(C)C[C@H](NC(=O)CNC(=O)c1cc(Cl)ccc1Cl)B(O)O [ixazomib] | 89.6% |  |

— paper PMC4559079 (Journal of Hematology & Oncology, 2015)
